A short description of data set [1]: ZAG i.v. administration to ob/ob mice, 5 day study (body weight, temperature, plasma metabolites). The format is in vivo. The settings on record: over the 5 day experiment. As for the experimental part: Animals—Mice—Homozygous obese (ob/ob) mice from the colony maintained at Aston University were used in the present study. The origin and characteristics of Aston ob/ob mice have been previously described. Male mice (20-21 weeks old, weight 90-100 g) were grouped into three per cage in an air conditioned room at 22 ±2° C. with a 12 h-light:12 h-dark cycle and fed a rat and mouse breeding diet (Special Diet Services, Witham, UK) and tap water ad libitum. They were administered ZAG (35 μg) in PBS (100 μl) b.d. by i.v. administration and body weight and food and water intake were monitored daily. Control mice received PBS alone. Body temperature was measured daily by the use of a rectal thermometer (RS Components, Northants, UK). […]
Serum Metabolite Determinations—Non-esterified fatty acids (NEFA) were determined using a Wako-ASC-ACOD kit (Wako Chemical GmbH, Neuss, Germany). Triglycerides were determined using a Triglyceride kit (Sigma Chemical Co., Poole, United Kingdom) and 3-hydroxybutyrate by a quantitative enzymatic determination kit (Sigma). Glucose was measured using a glucose analyser (Beckman, Irvine, Calif.) and glycerol was determined enzymatically using the method of Wieland as described in “Methods of Enzymatic Analysis” (Ed, Bergmeyer, H. U.) Vol. 3, pp1404-1409, published by Academic Press, London (1974).

A short description of data set [2]: Daily i.v. ZAG in mature male Wistar rats for 10 days (body weight, composition, plasma metabolites). The format is in vivo. The settings on record: during the 10 day study. As for the experimental part:
Animals Rais Mature male Wistar rats (one year old from our own colony) weighing 540 ±82.5 g were housed individually and treated once daily i. v., with either ZAG in PBS (100 μl) (50 μg per 100 g body weight), or with PBS (100 μl) as a control. Both food and water intake and body weight were measured daily. Animals were given free access to food (Special Diet Services, Essex, UK) and water ad libitum. The animal experiment was carried out under the welfare conditions imposed by the British Home Office. After 10 days treatment the animals were terminated and the body composition determined. Animals were heated to 80-90° C. for 7 days until constant weight was achieved. The water content was then determined from the difference between the wet and dry weight. Lipids were extracted from the dry carcass using a sequence of chloroform:methanol (1:1), ethanolla.cetone (1:1) and diethyl ether (120 ml of each) as described by Lundholm et al (14). […] The non-fat carcass mass was calculated as the difference between the initial weight of the carcass and the weight of water and fat.
Serum Metabolite Determinations—Non-esterified fatty acids (NEFA) were determined using a Wako-ASC-ACOD kit (Wako Chemical GmbH, Neuss, Germany). Triglycerides were determined using a Triglyceride kit (Sigma Chemical Co., Poole, United Kingdom) and 3-hydroxybutyrate by a quantitative enzymatic determination kit (Sigma). […]

The source of these data is patent US20210315969A1, “GLYCOPROTEINS HAVING LIPID MOBILIZING PROPERTIES AND THERAPEUTIC USES THEREOF” (Aston University, priority 2008, published 2021).

B1: Zinc-α2-glycoprotein (protein, listed as Homo sapiens)
chain: QENQDGRYSLTYIYTGLSKHVEDVPAFQALGSLNDLQFFRYNSKDRKSQPMGLWRQVEGMEDWKEDSQLQKAREDMETLKDIVEYYNDSNGSHVLQGRFGCEIENNRSSGAFWKYYYDGKDYIEFNKEIPAWVPFDPAAQITKQKWEAEPVYVQRAKAYLEEECPATLRKYLKYSKNILDRQDPPSVVVTSHQAPGEKKKLKCLAYDFYPGKIDVHWTRAGQVQEPELRGDVLHNGNGTYQSWVVVAVPPQDTAPYSCHVQHSSLAQPLVVPWEAS
notes: recombinant human Zinc-α2-glycoprotein, lipid mobilizing factor, expressed in HEK293F cells
For the molecule B1, the food intake in data set [1] was 30 ± 2.5 g; in data set [2] it was 102 ± 32 g. Moreover, the water intake in data set [1] was 135 ± 3.2 mL; in data set [2], 135 ± 35 mL.
